Reference: article PMC11176775
Results are given in words; binding and its absence hold for the method and conditions named. Some entries that bind do so weakly or less than the wild type.

Sequences of proteins named here, by UniProt entry; tags and fusion partners are left off.
UniProt P09874: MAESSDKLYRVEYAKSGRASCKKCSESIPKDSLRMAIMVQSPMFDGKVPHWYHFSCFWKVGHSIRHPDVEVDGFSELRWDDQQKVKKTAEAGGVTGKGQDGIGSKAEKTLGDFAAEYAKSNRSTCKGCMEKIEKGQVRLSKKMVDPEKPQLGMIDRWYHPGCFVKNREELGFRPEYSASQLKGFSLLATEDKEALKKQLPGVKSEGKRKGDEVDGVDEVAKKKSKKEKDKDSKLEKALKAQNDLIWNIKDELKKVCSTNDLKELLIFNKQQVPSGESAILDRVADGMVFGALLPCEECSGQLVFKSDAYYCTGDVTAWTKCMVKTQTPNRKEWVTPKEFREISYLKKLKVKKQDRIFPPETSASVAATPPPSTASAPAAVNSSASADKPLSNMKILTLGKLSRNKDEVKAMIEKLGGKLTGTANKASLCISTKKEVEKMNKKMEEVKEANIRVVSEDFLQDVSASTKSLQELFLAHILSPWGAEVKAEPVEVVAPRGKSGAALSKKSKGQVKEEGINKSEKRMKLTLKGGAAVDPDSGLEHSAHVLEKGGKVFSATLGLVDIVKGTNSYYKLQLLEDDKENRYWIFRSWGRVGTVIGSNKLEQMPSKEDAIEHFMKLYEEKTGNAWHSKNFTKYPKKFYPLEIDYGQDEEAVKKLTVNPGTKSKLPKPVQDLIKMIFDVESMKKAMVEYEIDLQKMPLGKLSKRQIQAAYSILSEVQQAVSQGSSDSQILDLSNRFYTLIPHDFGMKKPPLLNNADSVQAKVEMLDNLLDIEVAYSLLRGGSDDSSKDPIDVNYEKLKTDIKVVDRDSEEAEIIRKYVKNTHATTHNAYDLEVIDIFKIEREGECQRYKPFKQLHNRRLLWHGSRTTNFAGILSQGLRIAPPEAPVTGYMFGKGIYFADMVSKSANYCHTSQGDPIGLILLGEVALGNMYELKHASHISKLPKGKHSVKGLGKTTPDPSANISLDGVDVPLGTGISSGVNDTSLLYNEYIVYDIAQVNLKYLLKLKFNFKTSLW
UniProt P27695: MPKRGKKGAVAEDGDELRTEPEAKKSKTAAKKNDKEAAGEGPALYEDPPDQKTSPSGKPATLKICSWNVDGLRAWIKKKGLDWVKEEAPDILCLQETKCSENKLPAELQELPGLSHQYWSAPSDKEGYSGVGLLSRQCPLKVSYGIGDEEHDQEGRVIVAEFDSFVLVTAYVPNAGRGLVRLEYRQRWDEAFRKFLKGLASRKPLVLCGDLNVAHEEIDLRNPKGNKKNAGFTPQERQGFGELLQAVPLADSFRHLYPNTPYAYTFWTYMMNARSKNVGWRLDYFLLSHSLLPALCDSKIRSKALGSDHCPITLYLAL

How the values were obtained:
[1] = biological target: poly (ADP-ribose) polymerase 1 (UniProt P09874); test: SPR; Biacore X-100, 25 °C, CM5 chip; polβ and the ligases with XRCC1 and PARP1 (Fig. S3); 10 mM Hepes pH 7.4, 150 mM NaCl, 3 mM EDTA, 0.005% P20; both purified
[2] = biological target: Apurinic/apyrimidinic-endonuclease 1 (UniProt P27695); test: SPR; Biacore X-100, 25 °C; GST-tag polβ or APE1 immobilised on CM5 chip (EDC/NHS, 10 mM sodium acetate pH 4.0), his-tag LIG1 or LIGIIIα proteins as analytes; 10 mM Hepes pH 7.4, 150 mM NaCl, 3 mM EDTA, 0.005% P20; 1:1 (Langmuir) model; polβ truncated mutants (Fig. S2) tested likewise, orientation not given; both purified
[3] = biological target: GST-tag APE1 full-length (apurinic/apyrimidinic-endonuclease 1) (UniProt P27695); test: SPR; GST-tag polβ or APE1 immobilised on CM5 chip (EDC/NHS), his-tag LIG1 or LIGIIIα passed as analyte; Biacore X-100, 25 °C; 10 mM Hepes pH 7.4, 150 mM NaCl, 3 mM EDTA, 0.005% surfactant P20; 1:1 (Langmuir) fit; both purified

| Substance | binding [2] | also measured |
| --- | --- | --- |
| DNA ligase 1 full-length (1–919 amino acids) (from UniProt P18858 1-919) (enzyme) |  | binding [1]: binds |
| LIG1▵N-terminal (262–919 amino acids) (from UniProt P18858 262-919) (domain or fragment) | no binding |  |
| LIG1▵C-terminal (1–262 amino acids) (from UniProt P18858 1-262) (domain or fragment) | binds |  |
| LIG1△N-terminal (262–919 amino acids), C-terminal catalytic region of LIG1 (from UniProt P18858 262-919) (domain or fragment) |  | binding [3]: no binding |
